PubChem BioAssay AID1259254, NCATS | 2017

Purpose: 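Finding genes that stop cells copying their DNA twice in one cycle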 (primary screen)
Cells: human HCT116 colorectal cancer cells
Knock-down reagent: single siRNA against human genes
Time to read-out: 3 days
Measurement: 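Nuclei stained with Hoechst and imaged; cell-cycle phase assigned by DNA content; G2 share scaled per plate, non-targeting siRNA 0%, GMNN siRNA 100%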
Reading the numbers: G2 robust z-score and G2 cells, % of GMNN control: higher = more G2 cells, more excess DNA replication; raw share of cells in G2: higher = larger share of cells with G2 DNA content
Active means: 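An siRNA counts as active if its G2 robust z-score lies at least 5 MADs above the screen median; here such calls match roughly 38% of GMNN control or more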
This is an unselected part of about 59,000 reagents. About 1,550 of all reagents (2.6%) count as active. 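G2 share is only a proxy for re-replication; each gene was hit by three separate siRNAs, and active genes were retested.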 Raw values vary from plate to plate and are shown uncorrected. Unmarked entries are inactive. The numbers tell different reagents against one gene apart. The record does not give: the amount of reagent.

gene symbol | siRNA no. | G2 robust z-score | G2 cells, % of GMNN control | raw share of cells in G2 (%)
CYP4A11 (GeneID 1579) | 1 | -0.402 | 0.137 | 5.01
CYP4A11 (GeneID 1579) | 2 | -0.287 | 0.95 | 4.42
CYP4A11 (GeneID 1579) | 3 | 0.587 | 7.1 | 7.59
TAF6 (GeneID 6878) | 1 | 0.681 | 7.76 | 6.54
TAF6 (GeneID 6878) | 2 | 3.18 | 25.4 | 16.7
TAF6 (GeneID 6878) | 3 | 1.09 | 10.6 | 6.97
GPX5 (GeneID 2880) | 1 | -0.658 | -1.66 | 3.07
GPX5 (GeneID 2880) | 2 | 0.168 | 4.15 | 6.74
GPX5 (GeneID 2880) | 3 | 5.98 (active) | 45 | 22.4
USP46-DT (GeneID 643783) | 1 | -0.0884 | 2.35 | 4.53
USP46-DT (GeneID 643783) | 2 | 0.6 | 7.19 | 5.86
USP46-DT (GeneID 643783) | 3 | -0.732 | -2.19 | 2.51

5 consecutive entries from above:
gene symbol | siRNA no. | G2 robust z-score | G2 cells, % of GMNN control | raw share of cells in G2 (%)
CYP4A11 (GeneID 1579) | 1 | -0.402 | 0.137 | 5.01
CYP4A11 (GeneID 1579) | 2 | -0.287 | 0.95 | 4.42
CYP4A11 (GeneID 1579) | 3 | 0.587 | 7.1 | 7.59
TAF6 (GeneID 6878) | 1 | 0.681 | 7.76 | 6.54
TAF6 (GeneID 6878) | 2 | 3.18 | 25.4 | 16.7

The results go on:
gene symbol | siRNA no. | G2 robust z-score | G2 cells, % of GMNN control | raw share of cells in G2 (%)
POU6F2 (GeneID 11281) | 1 | -0.273 | 1.05 | 3.87
POU6F2 (GeneID 11281) | 2 | -0.97 | -3.86 | 4.27
POU6F2 (GeneID 11281) | 3 | -0.376 | 0.32 | 3.47
MPHOSPH10 (GeneID 10199) | 1 | 2.8 | 22.7 | 11.2
MPHOSPH10 (GeneID 10199) | 2 | 0.719 | 8.03 | 9.64
MPHOSPH10 (GeneID 10199) | 3 | 1.51 | 13.6 | 11.6
METTL16 (GeneID 79066) | 1 | 1.69 | 14.8 | 11.8
METTL16 (GeneID 79066) | 2 | -1.08 | -4.63 | 2.71
METTL16 (GeneID 79066) | 3 | 0.587 | 7.1 | 6.8
BMS1P12 (GeneID 644684) | 1 | 1.73 | 15.1 | 7.55
BMS1P12 (GeneID 644684) | 2 | 2.68 | 21.8 | 11.9
BMS1P12 (GeneID 644684) | 3 | -0.00997 | 2.9 | 4.31
OR1L8 (GeneID 138881) | 1 | 0.307 | 5.13 | 6.11
OR1L8 (GeneID 138881) | 2 | -0.551 | -0.91 | 2.81
OR1L8 (GeneID 138881) | 3 | -0.396 | 0.184 | 2.65
ZNF731P (GeneID 729806) | 1 | -0.217 | 1.44 | 4.66
ZNF731P (GeneID 729806) | 2 | -0.0933 | 2.31 | 4
ZNF731P (GeneID 729806) | 3 | -0.337 | 0.598 | 3.39
